PubChem BioAssay AID1224830, NIAID | 2016

- Screen: 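Genes whose knock-down alters the TNF-alpha reporter response to LPS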 (primary screen)
- Cell system: human THP-1 monocytic leukaemia cells, TNF dual-luciferase reporter clone, PMA-differentiated to macrophage-like cells
- Reagent: siRNA pool against human genes, 50 nM
- Time to read-out: LPS for 4 h, given about 3 days after siRNA transfection
- Challenge: bacterial LPS (TLR4 ligand), 10 ng/ml
- Detection: 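Ratio of firefly to renilla light, scaled to the plate median and expressed as a robust z-score per replicate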
- Direction: TNF reporter robust z-score: higher = stronger TNF reporter response to LPS
- Rule for the call: 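Each well counts as active if its z-score is over 2.8 or under -1.5; controls are left without a call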
This is an unselected part of about 18,000 reagents. In the full data, about 2,900 (16%) are marked active. 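Calls are made per well; low scores hint the gene aids the LPS response, high scores that it dampens it.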 Repeated entries: four replicate wells of each siRNA pool. No sequences are given here.

gene symbol	PubChem SID	TNF reporter robust z-score	outcome
MAVS	SID315458424	0.38	inactive
MAVS	SID315458424	-0.39	inactive
MAVS	SID315458424	1.09	inactive
MAVS	SID315458424	1.48	inactive
EPHX1	SID315448537	1.01	inactive
EPHX1	SID315448537	2.28	inactive
EPHX1	SID315448537	1.15	inactive
EPHX1	SID315448537	3.12	active
RCAN2	SID315453927	-1.81	active
RCAN2	SID315453927	-1.23	inactive
RCAN2	SID315453927	-1.93	active
RCAN2	SID315453927	-1.48	inactive
MKNK1	SID315452665	0.3	inactive
MKNK1	SID315452665	0.7	inactive
MKNK1	SID315452665	0.62	inactive
MKNK1	SID315452665	0.61	inactive
MGLL	SID315454775	-0.35	inactive
MGLL	SID315454775	-0.07	inactive
MGLL	SID315454775	0.06	inactive
MGLL	SID315454775	-0.24	inactive
KISS1	SID315449658	-0.79	inactive
KISS1	SID315449658	-1.28	inactive
KISS1	SID315449658	-1.4	inactive
KISS1	SID315449658	-1.71	active
IMMP1L	SID315462955	1.6	inactive
IMMP1L	SID315462955	1.1	inactive
IMMP1L	SID315462955	0.59	inactive
IMMP1L	SID315462955	3.24	active
NRDC	SID315450309	-0.77	inactive
NRDC	SID315450309	-0.46	inactive
NRDC	SID315450309	-0.68	inactive
NRDC	SID315450309	-1.41	inactive
MMAB	SID315463946	0.31	inactive
MMAB	SID315463946	0.19	inactive
MMAB	SID315463946	0.47	inactive
MMAB	SID315463946	1.29	inactive
NUCKS1	SID315458958	-0.09	inactive
NUCKS1	SID315458958	-0.05	inactive
NUCKS1	SID315458958	1.55	inactive
NMD3	SID315456439	-0.23	inactive
NMD3	SID315456439	-0.27	inactive
NMD3	SID315456439	0.21	inactive
NMD3	SID315456439	1.69	inactive
GCSH	SID315448869	-0.3	inactive
GCSH	SID315448869	-0.07	inactive
GCSH	SID315448869	-0.35	inactive
GCSH	SID315448869	-0.09	inactive
NOL12	SID315459238	-0.41	inactive
NOL12	SID315459238	-0.73	inactive
NOL12	SID315459238	-0.14	inactive
NOL12	SID315459238	-0.55	inactive
TULP3	SID315452015	0.7	inactive
TULP3	SID315452015	0.39	inactive
TULP3	SID315452015	0.83	inactive
TULP3	SID315452015	-0.07	inactive
ZNF136	SID315452245	-0.38	inactive
ZNF136	SID315452245	0.63	inactive
ZNF136	SID315452245	0.11	inactive
ZNF136	SID315452245	0.2	inactive
DCP1B	SID315462972	-1.05	inactive
DCP1B	SID315462972	-0.04	inactive
DCP1B	SID315462972	0.3	inactive
DCP1B	SID315462972	0.33	inactive
LINC02913	SID315464864	-0.89	inactive
LINC02913	SID315464864	-0.75	inactive
LINC02913	SID315464864	-1.01	inactive
LINC02913	SID315464864	-0.91	inactive

The list goes on, starting with the last 15 of the part before.
gene symbol	PubChem SID	TNF reporter robust z-score	outcome
TULP3	SID315452015	0.39	inactive
TULP3	SID315452015	0.83	inactive
TULP3	SID315452015	-0.07	inactive
ZNF136	SID315452245	-0.38	inactive
ZNF136	SID315452245	0.63	inactive
ZNF136	SID315452245	0.11	inactive
ZNF136	SID315452245	0.2	inactive
DCP1B	SID315462972	-1.05	inactive
DCP1B	SID315462972	-0.04	inactive
DCP1B	SID315462972	0.3	inactive
DCP1B	SID315462972	0.33	inactive
LINC02913	SID315464864	-0.89	inactive
LINC02913	SID315464864	-0.75	inactive
LINC02913	SID315464864	-1.01	inactive
LINC02913	SID315464864	-0.91	inactive
CTBS	SID315448159	2.24	inactive
CTBS	SID315448159	2.07	inactive
CTBS	SID315448159	0.81	inactive
CTBS	SID315448159	2.03	inactive
MCTP1	SID315459448	0.18	inactive
MCTP1	SID315459448	0.71	inactive
MCTP1	SID315459448	0.81	inactive
MCTP1	SID315459448	1.45	inactive
OSCAR	SID315461677	0.29	inactive
OSCAR	SID315461677	0.35	inactive
OSCAR	SID315461677	0.73	inactive
OSCAR	SID315461677	0.17	inactive
TAOK1	SID315458459	0.99	inactive
TAOK1	SID315458459	0.1	inactive
TAOK1	SID315458459	0.26	inactive
TAOK1	SID315458459	-0.83	inactive
PDE6B	SID315450491	1.81	inactive
PDE6B	SID315450491	-0.01	inactive
PDE6B	SID315450491	1.08	inactive
PDE6B	SID315450491	0.27	inactive
MS4A8	SID315460052	-0.09	inactive
MS4A8	SID315460052	0.16	inactive
MS4A8	SID315460052	-0.1	inactive
MS4A8	SID315460052	-0.11	inactive
SELL	SID315451368	4.06	active
SELL	SID315451368	3.26	active
SELL	SID315451368	3.62	active
SELL	SID315451368	5.89	active
SMIM15	SID315465075	0.04	inactive
SMIM15	SID315465075	0.66	inactive
SMIM15	SID315465075	0.22	inactive
SMIM15	SID315465075	0.09	inactive
LUZP4	SID315456559	-0.82	inactive
LUZP4	SID315456559	-0.1	inactive
LUZP4	SID315456559	-0.91	inactive
LUZP4	SID315456559	-0.61	inactive
RETREG3	SID315462747	-0.71	inactive
RETREG3	SID315462747	-0.79	inactive
RETREG3	SID315462747	-0.75	inactive
RETREG3	SID315462747	-0.52	inactive
RNF207	SID315464502	0.84	inactive
RNF207	SID315464502	3.7	active
RNF207	SID315464502	0.75	inactive
RNF207	SID315464502	0.5	inactive
CHRDL2	SID315455528	0	inactive
CHRDL2	SID315455528	1.2	inactive
CHRDL2	SID315455528	0.34	inactive
CHRDL2	SID315455528	0.45	inactive
FOXS1	SID315448719	-0.39	inactive
FOXS1	SID315448719	-0.13	inactive
FOXS1	SID315448719	-0.66	inactive
FOXS1	SID315448719	-0.92	inactive
HLA-DQB1	SID315449212	-0.42	inactive
HLA-DQB1	SID315449212	-0.51	inactive
HLA-DQB1	SID315449212	-1.41	inactive
HLA-DQB1	SID315449212	0.28	inactive
CENPN	SID315457897	0.87	inactive
CENPN	SID315457897	0.86	inactive
CENPN	SID315457897	2.63	inactive
CENPN	SID315457897	0.23	inactive
EPM2A	SID315452356	-1.62	active
EPM2A	SID315452356	1.02	inactive
EPM2A	SID315452356	1.21	inactive
EPM2A	SID315452356	1.15	inactive
TRIM58	SID315455534	2.98	active
TRIM58	SID315455534	1.49	inactive
TRIM58	SID315455534	1.58	inactive
TRIM58	SID315455534	0.31	inactive
HSD17B2	SID315449330	-1.29	inactive
HSD17B2	SID315449330	-0.99	inactive
HSD17B2	SID315449330	-0.91	inactive
HSD17B2	SID315449330	-1.02	inactive
CATSPERD	SID315463546	-0.12	inactive
CATSPERD	SID315463546	0.15	inactive
CATSPERD	SID315463546	-0.24	inactive
CATSPERD	SID315463546	-0.13	inactive
